In the experiment the target is T1, VE-cadherin (RFP-tagged at the C-tail) (UniProt P33151).
T1 sequence: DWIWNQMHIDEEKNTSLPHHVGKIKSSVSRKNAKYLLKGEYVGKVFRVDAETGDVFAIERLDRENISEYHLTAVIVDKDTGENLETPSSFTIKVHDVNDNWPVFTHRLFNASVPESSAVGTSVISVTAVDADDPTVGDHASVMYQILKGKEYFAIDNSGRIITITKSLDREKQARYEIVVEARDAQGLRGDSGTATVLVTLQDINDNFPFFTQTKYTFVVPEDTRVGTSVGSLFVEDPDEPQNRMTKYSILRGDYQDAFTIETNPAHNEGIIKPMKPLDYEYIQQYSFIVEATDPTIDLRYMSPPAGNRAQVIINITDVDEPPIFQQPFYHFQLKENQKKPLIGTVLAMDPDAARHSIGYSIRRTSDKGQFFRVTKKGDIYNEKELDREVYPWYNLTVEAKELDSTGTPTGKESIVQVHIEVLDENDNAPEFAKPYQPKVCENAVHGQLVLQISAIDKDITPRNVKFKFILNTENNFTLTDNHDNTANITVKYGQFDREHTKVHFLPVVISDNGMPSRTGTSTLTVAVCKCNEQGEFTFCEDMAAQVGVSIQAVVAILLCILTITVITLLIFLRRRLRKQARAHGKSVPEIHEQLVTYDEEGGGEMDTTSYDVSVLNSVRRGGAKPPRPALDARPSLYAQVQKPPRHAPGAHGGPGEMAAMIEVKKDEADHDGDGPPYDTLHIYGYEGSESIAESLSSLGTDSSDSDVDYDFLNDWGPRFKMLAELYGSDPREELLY
The experiment in a line: co-IP; lysates of transiently transfected HEK-293T cells (1% Triton X-100, 10 mM Tris pH 7.6, 50 mM NaCl, 0.1% BSA); Protein A-Sepharose beads coated with anti-E-cadherin or anti-RFP antibody, or unrelated antibody (Ig), 2 h at 4 °C; Western blot against the HA-tag.

Results are given in words; binding and its absence hold for the method and conditions named. Binding seen in cells or lysates may run through a third protein. Some binding calls cover weakened binding; strength is not graded here. Where a sequence is shown, tags or fusion partners need not be part of it.

B1: catalytically inactive S186A derivative of mouse RHBDL2 (triple N-terminal HA-tag) (enzyme, UniProt A2AGA4 1-302)
chain: MAVAHEMEMESVNLNMEREGKEEPEEEKMKGNGEGKDFPRSRKVHRIVSKWMLPEPVRRTYLERANCLPPPLFIILISLAELAVFIYYAVWKPQKQWITLDTGILESPLTYCPEKREEAWRFISYMLVHAGVQHIVGNLLMQIVLGIPLEMVHKGLRVGLVYLAGVLAGSLASSIFDPLKSLVGAAGGVYALMGGYFMNVIVNFREMIPAFGIVRLLVIILIVASDMGFALYRRFFVPANGSPVSFAAHIAGGFAGMSIGYTVFSCFDKTLLKDPRFWIAIAAYVACLLFAVFFNIFLSPAN
B1: the binding result was “binds”.

The values above are taken from article PMC6928865.
